# Reference: the supplement of paper PMC6411743
# Amino acid sequences for entries named in this document (tags omitted). A change or cut given only in a name is not applied to a line headed by its entry.
# UniProt Q96AB6: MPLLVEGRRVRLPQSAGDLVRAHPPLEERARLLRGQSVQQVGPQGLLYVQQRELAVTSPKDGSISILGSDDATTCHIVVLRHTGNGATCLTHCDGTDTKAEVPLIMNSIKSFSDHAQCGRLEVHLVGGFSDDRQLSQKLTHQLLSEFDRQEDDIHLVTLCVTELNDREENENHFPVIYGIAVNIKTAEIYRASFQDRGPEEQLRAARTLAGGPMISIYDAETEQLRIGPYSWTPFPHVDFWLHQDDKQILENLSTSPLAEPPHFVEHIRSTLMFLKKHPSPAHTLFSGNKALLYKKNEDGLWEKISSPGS
# UniProt Q8TE82: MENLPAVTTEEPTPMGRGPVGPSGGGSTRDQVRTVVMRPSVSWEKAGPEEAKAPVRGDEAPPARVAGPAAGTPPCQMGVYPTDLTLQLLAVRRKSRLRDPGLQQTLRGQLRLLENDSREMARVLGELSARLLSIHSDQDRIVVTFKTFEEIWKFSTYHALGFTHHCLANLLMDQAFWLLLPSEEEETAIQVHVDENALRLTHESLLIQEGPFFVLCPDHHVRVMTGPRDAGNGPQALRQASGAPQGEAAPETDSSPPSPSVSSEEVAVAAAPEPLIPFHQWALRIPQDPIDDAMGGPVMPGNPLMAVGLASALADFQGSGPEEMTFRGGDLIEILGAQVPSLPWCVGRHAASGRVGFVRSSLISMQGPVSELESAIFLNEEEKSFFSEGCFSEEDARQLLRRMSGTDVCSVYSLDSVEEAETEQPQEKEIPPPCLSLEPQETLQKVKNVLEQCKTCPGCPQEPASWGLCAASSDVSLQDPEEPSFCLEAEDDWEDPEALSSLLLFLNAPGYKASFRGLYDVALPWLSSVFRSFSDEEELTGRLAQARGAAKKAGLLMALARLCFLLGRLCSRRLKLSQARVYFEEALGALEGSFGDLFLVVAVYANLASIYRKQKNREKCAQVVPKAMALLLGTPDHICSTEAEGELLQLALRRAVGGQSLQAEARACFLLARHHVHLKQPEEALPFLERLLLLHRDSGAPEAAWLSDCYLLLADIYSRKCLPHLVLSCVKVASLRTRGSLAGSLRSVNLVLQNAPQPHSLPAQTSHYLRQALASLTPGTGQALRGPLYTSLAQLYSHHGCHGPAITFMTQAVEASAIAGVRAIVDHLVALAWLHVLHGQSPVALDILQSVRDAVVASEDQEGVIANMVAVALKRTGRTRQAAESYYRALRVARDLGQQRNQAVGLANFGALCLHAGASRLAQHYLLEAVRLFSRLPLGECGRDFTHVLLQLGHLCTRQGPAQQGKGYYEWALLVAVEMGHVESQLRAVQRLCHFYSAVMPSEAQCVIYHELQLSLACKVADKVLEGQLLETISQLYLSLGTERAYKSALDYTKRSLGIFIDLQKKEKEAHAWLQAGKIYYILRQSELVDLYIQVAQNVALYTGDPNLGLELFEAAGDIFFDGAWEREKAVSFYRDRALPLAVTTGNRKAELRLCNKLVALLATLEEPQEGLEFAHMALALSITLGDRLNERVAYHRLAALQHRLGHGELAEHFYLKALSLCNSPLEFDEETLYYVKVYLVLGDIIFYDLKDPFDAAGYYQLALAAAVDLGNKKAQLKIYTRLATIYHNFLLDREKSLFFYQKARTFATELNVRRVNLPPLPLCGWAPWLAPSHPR
# UniProt Q92551: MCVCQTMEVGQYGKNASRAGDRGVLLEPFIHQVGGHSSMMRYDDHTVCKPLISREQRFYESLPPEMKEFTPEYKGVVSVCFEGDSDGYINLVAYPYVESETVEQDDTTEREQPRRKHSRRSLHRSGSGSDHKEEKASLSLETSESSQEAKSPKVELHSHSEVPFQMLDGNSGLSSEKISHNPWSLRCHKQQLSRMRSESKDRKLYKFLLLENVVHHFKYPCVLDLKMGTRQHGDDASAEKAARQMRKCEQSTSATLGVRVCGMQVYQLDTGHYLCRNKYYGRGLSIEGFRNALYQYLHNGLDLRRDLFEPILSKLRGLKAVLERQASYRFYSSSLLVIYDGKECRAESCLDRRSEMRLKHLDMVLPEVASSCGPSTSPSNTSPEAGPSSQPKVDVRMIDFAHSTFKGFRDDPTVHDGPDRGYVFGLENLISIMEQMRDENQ
# UniProt Q8WXI9: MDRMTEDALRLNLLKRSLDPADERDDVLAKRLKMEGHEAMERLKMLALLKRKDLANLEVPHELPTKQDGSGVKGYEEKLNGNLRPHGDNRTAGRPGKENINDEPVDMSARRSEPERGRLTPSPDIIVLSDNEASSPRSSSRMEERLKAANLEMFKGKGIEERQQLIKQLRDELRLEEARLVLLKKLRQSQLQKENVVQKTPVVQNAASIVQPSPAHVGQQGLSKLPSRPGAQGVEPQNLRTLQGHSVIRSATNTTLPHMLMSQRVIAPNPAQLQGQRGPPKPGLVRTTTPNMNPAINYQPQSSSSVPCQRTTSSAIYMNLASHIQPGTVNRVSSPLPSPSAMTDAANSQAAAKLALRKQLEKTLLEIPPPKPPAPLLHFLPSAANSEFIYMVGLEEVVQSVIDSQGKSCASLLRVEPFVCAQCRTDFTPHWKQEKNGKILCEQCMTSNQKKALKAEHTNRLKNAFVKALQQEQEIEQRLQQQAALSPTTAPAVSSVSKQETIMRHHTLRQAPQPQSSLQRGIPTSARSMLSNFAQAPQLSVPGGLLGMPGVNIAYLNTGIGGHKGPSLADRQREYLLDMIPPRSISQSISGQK
# UniProt Q92995: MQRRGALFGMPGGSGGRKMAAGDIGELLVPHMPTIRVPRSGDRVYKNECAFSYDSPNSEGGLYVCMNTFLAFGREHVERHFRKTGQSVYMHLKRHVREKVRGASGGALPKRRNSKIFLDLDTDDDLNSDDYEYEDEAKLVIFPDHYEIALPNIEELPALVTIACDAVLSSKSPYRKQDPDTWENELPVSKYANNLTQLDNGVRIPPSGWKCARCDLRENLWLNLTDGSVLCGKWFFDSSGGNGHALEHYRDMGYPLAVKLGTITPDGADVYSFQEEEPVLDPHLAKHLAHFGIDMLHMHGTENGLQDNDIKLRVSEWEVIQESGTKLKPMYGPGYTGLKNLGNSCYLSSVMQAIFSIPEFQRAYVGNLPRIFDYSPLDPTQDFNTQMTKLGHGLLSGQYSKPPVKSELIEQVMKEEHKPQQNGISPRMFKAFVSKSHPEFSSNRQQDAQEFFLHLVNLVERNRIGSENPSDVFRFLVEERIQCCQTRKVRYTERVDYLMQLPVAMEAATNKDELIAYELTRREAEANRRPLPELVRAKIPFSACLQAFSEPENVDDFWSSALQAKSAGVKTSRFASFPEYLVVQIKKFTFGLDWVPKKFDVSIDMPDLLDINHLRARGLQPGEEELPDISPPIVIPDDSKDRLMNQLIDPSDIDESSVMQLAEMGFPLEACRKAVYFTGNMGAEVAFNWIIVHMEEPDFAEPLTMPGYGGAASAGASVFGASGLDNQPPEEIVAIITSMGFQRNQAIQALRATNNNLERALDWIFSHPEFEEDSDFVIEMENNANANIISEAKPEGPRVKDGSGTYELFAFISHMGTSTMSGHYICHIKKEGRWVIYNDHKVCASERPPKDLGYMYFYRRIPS
# UniProt Q8WYL5: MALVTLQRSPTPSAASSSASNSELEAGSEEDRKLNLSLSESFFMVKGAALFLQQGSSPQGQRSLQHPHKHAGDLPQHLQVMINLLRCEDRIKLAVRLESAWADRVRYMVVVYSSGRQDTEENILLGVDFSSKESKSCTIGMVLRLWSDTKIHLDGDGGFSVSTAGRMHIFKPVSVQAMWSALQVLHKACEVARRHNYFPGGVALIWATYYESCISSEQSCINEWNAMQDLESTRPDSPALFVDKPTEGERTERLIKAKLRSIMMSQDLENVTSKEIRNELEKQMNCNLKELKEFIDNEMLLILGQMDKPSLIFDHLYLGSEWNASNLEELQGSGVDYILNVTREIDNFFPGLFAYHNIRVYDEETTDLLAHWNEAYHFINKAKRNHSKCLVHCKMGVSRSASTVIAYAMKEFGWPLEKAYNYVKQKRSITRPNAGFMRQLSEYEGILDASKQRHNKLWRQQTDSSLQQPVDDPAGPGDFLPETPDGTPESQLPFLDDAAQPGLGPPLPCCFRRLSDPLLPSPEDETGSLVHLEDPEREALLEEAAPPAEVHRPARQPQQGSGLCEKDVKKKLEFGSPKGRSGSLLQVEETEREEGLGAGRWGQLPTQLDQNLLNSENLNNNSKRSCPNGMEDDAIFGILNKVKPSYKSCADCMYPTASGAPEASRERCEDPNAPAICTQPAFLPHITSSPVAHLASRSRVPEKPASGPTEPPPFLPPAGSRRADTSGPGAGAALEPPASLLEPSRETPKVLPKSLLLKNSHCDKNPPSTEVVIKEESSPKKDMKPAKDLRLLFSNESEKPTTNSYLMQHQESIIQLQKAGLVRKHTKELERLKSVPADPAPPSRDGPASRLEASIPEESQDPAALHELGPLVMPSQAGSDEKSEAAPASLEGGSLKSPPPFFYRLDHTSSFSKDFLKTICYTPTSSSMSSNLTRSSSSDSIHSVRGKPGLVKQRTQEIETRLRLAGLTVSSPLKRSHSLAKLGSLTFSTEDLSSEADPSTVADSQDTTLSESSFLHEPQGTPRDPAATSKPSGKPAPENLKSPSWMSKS
# UniProt Q8WXD5: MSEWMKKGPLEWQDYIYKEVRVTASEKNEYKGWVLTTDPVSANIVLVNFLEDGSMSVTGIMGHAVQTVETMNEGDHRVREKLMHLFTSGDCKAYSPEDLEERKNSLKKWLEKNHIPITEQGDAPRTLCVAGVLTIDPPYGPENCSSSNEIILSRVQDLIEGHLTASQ
# UniProt Q92520: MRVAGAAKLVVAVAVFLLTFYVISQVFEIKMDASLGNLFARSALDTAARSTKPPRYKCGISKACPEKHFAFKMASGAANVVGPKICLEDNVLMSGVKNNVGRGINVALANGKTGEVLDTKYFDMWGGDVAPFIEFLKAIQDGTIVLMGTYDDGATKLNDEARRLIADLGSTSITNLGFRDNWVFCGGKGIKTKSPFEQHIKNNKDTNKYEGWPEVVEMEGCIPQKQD
# UniProt Q8WV22: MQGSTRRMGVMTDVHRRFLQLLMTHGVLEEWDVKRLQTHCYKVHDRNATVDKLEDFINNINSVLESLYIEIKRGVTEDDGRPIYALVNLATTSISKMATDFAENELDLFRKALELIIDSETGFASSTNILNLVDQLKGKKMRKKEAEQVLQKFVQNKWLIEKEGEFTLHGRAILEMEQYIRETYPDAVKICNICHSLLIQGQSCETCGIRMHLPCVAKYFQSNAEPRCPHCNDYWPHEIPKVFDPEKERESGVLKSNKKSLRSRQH
# UniProt Q8WVM7: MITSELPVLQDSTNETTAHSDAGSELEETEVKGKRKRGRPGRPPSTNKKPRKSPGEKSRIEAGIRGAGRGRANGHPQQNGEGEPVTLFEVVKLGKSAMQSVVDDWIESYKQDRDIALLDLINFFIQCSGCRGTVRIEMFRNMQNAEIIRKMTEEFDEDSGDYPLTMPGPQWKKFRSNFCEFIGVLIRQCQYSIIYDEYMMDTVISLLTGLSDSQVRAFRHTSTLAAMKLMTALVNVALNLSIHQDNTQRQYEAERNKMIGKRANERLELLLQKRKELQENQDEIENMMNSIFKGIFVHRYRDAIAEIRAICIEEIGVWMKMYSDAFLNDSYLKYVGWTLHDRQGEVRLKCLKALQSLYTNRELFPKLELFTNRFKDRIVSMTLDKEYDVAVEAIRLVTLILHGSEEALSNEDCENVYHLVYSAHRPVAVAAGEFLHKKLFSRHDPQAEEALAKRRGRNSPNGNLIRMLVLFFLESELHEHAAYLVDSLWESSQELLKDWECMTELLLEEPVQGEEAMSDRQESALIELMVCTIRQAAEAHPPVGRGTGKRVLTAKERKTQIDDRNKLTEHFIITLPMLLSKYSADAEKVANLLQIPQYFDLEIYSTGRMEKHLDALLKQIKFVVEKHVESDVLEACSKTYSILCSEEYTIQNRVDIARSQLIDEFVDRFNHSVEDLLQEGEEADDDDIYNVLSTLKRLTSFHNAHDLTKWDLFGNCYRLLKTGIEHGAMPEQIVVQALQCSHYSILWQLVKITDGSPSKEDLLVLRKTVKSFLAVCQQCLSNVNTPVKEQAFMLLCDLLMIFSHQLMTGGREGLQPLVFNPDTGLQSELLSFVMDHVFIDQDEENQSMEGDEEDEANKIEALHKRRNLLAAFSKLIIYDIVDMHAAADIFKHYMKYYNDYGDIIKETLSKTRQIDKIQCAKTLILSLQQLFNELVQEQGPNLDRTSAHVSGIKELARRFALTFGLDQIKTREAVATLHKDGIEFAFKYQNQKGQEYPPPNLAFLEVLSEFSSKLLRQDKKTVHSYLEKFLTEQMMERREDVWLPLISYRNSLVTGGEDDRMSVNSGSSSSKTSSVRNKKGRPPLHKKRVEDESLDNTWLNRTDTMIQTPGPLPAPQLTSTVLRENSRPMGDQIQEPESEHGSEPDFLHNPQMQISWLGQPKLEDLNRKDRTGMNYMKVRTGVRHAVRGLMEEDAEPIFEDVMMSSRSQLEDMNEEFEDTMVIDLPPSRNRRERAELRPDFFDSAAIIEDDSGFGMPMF
# ± gives the standard deviation of the averaged measurements. Only a part is listed here, and it is no random draw. Small differences around the control level are noise.
# Compound: Nc1ncnc2c1ncn2[C@@H]1O[C@H](COP(=O)(O)OP(=O)(O)OP(=O)(O)O)[C@@H](O)[C@H]1O [adenosine triphosphate]
# Experiment: NP40-soluble protein abundance relative to vehicle (solubility fold change) (ratio); higher = more soluble protein in presence of ATP
# Method in brief: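 Across three independent experiments, values are fold changes against the detergent-processed vehicle for each replicate, based on vsn-normalised intensities. The samples were Jurkat crude lysate treated with eight concentrations (0.1 to 10 mM) for 10 min at room temperature and then 3 min at 37 °C. Lysate was solubilised with 0.8% NP40 and benzonase, ultracentrifuged, and the supernatant analysed by TMT-labelled LC-MS/MS.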
Target,NP40-soluble protein abundance (concentration: 0.1mM),NP40-soluble protein abundance (concentration: 0.5mM)
ISL2 (UniProt Q96A47),0.962 ± 0.044,1.01 ± 0.056
UniProt Q969G3 and related entries,0.919 ± 0.11,0.941 ± 0.11
UniProt Q8WVK2 and related entries,1.09 ± 0.11,1.17 ± 0.055
UniProt Q92845 and related entries,1.015 ± 0.0043,1.1 ± 0.13
ZC3H15 (UniProt Q8WU90),1 ± 0.031,1 ± 0.056
NTAN1 (UniProt Q96AB6),1.09 ± 0.014,1.09 ± 0.033
UniProt Q8TE82,1.089 ± 0.0065,1.02 ± 0.038
DDB2 (UniProt Q92466),0.985 ± 0.034,1 ± 0.044
UniProt Q969V3 and related entries,1.05 ± 0.085,1.01 ± 0.013
NUDCD2 (UniProt Q8WVJ2),0.993 ± 0.033,0.961 ± 0.051
UniProt Q92616,1.04 ± 0.047,1.05 ± 0.036
UniProt Q8WZA9,0.96 ± 0.028,0.927 ± 0.023
SEMA4D (UniProt Q92854),0.939 ± 0.035,0.945 ± 0.029
CREBBP (UniProt Q92793),0.971 ± 0.039,1.02 ± 0.037
UniProt Q8WU76 and related entries,1.01 ± 0.062,1.01 ± 0.082
UniProt Q93100 and related entries,1.01 ± 0.035,0.981 ± 0.041
UniProt Q92890 and related entries,1.02 ± 0.045,1.01 ± 0.033
LEO1 (UniProt Q8WVC0),0.9899 ± 0.0086,1.03 ± 0.05
UniProt Q969Y2 and related entries,1.01 ± 0.065,1 ± 0.018
UniProt Q8WXA9-2,1.13 ± 0.056,1.35 ± 0.095
ZNF516 (UniProt Q92618),0.999 ± 0.17,1 ± 0.17
GTF3C2 (UniProt Q8WUA4),0.984 ± 0.043,1.01 ± 0.069
UniProt Q8TCT9 and related entries,1.01 ± 0.028,0.963 ± 0.039
UniProt Q8WWC4,1.05 ± 0.091,1.07 ± 0.055

Target,NP40-soluble protein abundance (concentration: 0.1mM),NP40-soluble protein abundance (concentration: 0.5mM)
IP6K1 (UniProt Q92551),1.08 ± 0.14,1.02 ± 0.057
UniProt Q969S9 and related entries,1.06 ± 0.056,1.05 ± 0.068
UniProt Q969E2 and related entries,1.05 ± 0.049,1 ± 0.099
BRI3BP (UniProt Q8WY22),0.907 ± 0.056,0.982 ± 0.011
GTF3C6 (UniProt Q969F1),0.989 ± 0.031,1 ± 0.031
UniProt Q8TBA6 and related entries,0.992 ± 0.018,0.965 ± 0.03
UniProt Q8TBE0 and related entries,1.06 ± 0.028,0.979 ± 0.041
UniProt Q8WY54 and related entries,0.981 ± 0.082,0.947 ± 0.076
UniProt Q92609 and related entries,1.03 ± 0.026,1.03 ± 0.033
RNF25 (UniProt Q96BH1),1.02 ± 0.058,0.996 ± 0.035
SYAP1 (UniProt Q96A49),0.962 ± 0.029,0.983 ± 0.022
PLEKHO2 (UniProt Q8TD55),0.978 ± 0.045,0.953 ± 0.036
UniProt Q8TEA7 and related entries,1 ± 0.086,0.986 ± 0.084
UniProt Q8WVQ1 and related entries,1.05 ± 0.038,0.994 ± 0.048
UniProt Q8WUB8 and related entries,1.02 ± 0.064,1.11 ± 0.062
UniProt Q8TBX8 and related entries,1.05 ± 0.067,1.04 ± 0.069
UniProt Q8TDD1 and related entries,1.04 ± 0.025,1.09 ± 0.037
RNASEH2C (UniProt Q8TDP1),0.971 ± 0.018,0.959 ± 0.048
ERCC4 (UniProt Q92889),1.04 ± 0.072,1.04 ± 0.077
UniProt Q8WXE1 and related entries,1.05 ± 0.046,0.981 ± 0.047
UniProt Q96AE7-2|Q96AE7,0.973 ± 0.1,1.02 ± 0.078
RDH11 (UniProt Q8TC12),0.994 ± 0.039,1.01 ± 0.039
GATAD2B (UniProt Q8WXI9),0.964 ± 0.058,0.968 ± 0.056
UniProt Q93050 and related entries,1.051 ± 0.0059,1.08 ± 0.08

Target,NP40-soluble protein abundance (concentration: 0.1mM),NP40-soluble protein abundance (concentration: 0.5mM)
UniProt Q92599,1.09 ± 0.14,1.08 ± 0.17
UniProt Q8TEX9 and related entries,0.969 ± 0.025,0.942 ± 0.066
UniProt Q8WWK9 and related entries,0.947 ± 0.022,0.964 ± 0.022
UniProt Q92896 and related entries,0.993 ± 0.015,1 ± 0.022
HDAC2 (UniProt Q92769),0.972 ± 0.025,1.01 ± 0.066
DTX3L (UniProt Q8TDB6),1.05 ± 0.029,1.07 ± 0.036
USP13 (UniProt Q92995),1.02 ± 0.064,1.02 ± 0.048
CASKIN2 (UniProt Q8WXE0),0.976 ± 0.032,1.01 ± 0.058
UniProt Q92542 and related entries,0.947 ± 0.028,0.902 ± 0.083
UniProt Q92538 and related entries,1.02 ± 0.036,1.008 ± 0.0092
SPRYD4 (UniProt Q8WW59),1.07 ± 0.12,1.01 ± 0.05
UniProt Q8WYL5,1.11 ± 0.18,0.964 ± 0.14
MZB1 (UniProt Q8WU39),0.953 ± 0.06,0.921 ± 0.088
EXOC4 (UniProt Q96A65),1.01 ± 0.03,1.03 ± 0.054
ANKS1A (UniProt Q92625),0.956 ± 0.013,0.929 ± 0.023
PIGK (UniProt Q92643),1.06 ± 0.18,1.08 ± 0.051
SMCR8 (UniProt Q8TEV9),1.03 ± 0.035,1.01 ± 0.042
UniProt Q8TE02 and related entries,1.02 ± 0.074,0.951 ± 0.14
DHX38 (UniProt Q92620),1.016 ± 0.0024,1.1 ± 0.052
RAB8B (UniProt Q92930),1.01 ± 0.073,1.06 ± 0.085
UniProt Q92997 and related entries,0.984 ± 0.063,0.979 ± 0.019
GEMIN6 (UniProt Q8WXD5),0.97 ± 0.12,0.915 ± 0.062
PDCD6IP (UniProt Q8WUM4),0.994 ± 0.029,1.02 ± 0.039
FAM3C (UniProt Q92520),0.9863 ± 0.0047,0.952 ± 0.021

Target,NP40-soluble protein abundance (concentration: 0.1mM),NP40-soluble protein abundance (concentration: 0.5mM)
COPS5 (UniProt Q92905),0.994 ± 0.057,1 ± 0.023
SETD7 (UniProt Q8WTS6),1.04 ± 0.034,1.02 ± 0.047
FAM172A (UniProt Q8WUF8),1.04 ± 0.041,1.07 ± 0.073
UniProt Q8TF05 and related entries,1.08 ± 0.02,1.02 ± 0.065
PSPC1 (UniProt Q8WXF1),1.02 ± 0.036,1.03 ± 0.049
UniProt Q969H8,1.04 ± 0.14,1.06 ± 0.068
FIG4 (UniProt Q92562),1.01 ± 0.19,1.03 ± 0.026
UniProt Q92851-4,1.22 ± 0.28,1.01 ± 0.088
UniProt Q92766 and related entries,1.01 ± 0.021,1.07 ± 0.055
UniProt Q8TBN0 and related entries,0.924 ± 0.11,0.903 ± 0.022
UniProt Q8TEQ0 and related entries,1.03 ± 0.026,1.05 ± 0.033
PYROXD1 (UniProt Q8WU10),1.1 ± 0.12,1.07 ± 0.079
UBA3 (UniProt Q8TBC4),1.02 ± 0.086,1.02 ± 0.075
GPKOW (UniProt Q92917),1.04 ± 0.031,1.07 ± 0.016
UniProt Q92783 and related entries,0.972 ± 0.019,0.975 ± 0.0099
UniProt Q8TCY9,1.05 ± 0.14,0.981 ± 0.15
UniProt Q93008 and related entries,1.02 ± 0.038,1.024 ± 0.0064
NDRG1 (UniProt Q92597),0.96 ± 0.021,0.984 ± 0.033
UniProt Q969E4,1.04 ± 0.044,0.952 ± 0.14
UniProt Q8TDQ7 and related entries,1.04 ± 0.078,0.987 ± 0.025
THAP4 (UniProt Q8WY91),1 ± 0.068,1.06 ± 0.051
UniProt Q969N2 and related entries,0.9693 ± 0.0077,0.949 ± 0.066
UniProt Q92622 and related entries,0.953 ± 0.091,0.933 ± 0.072
UniProt Q92619,1 ± 0.031,1.09 ± 0.029

Target,NP40-soluble protein abundance (concentration: 0.1mM),NP40-soluble protein abundance (concentration: 0.5mM)
NSMCE1 (UniProt Q8WV22),1.03 ± 0.082,0.984 ± 0.03
UniProt Q96BD5 and related entries,0.978 ± 0.058,0.979 ± 0.038
C15orf40 (UniProt Q8WUR7),0.931 ± 0.033,0.91 ± 0.13
UniProt Q8TC07 and related entries,1.07 ± 0.1,1.05 ± 0.079
RAB2B (UniProt Q8WUD1),1.01 ± 0.037,1.04 ± 0.11
UniProt Q92600 and related entries,0.831 ± 0.16,0.839 ± 0.2
PI4K2B (UniProt Q8TCG2),1.03 ± 0.091,0.955 ± 0.055
UniProt Q96AQ8,0.956 ± 0.018,0.949 ± 0.082
PCNP (UniProt Q8WW12),0.869 ± 0.056,0.869 ± 0.1
UniProt Q8WVE0,1.01 ± 0.037,1.06 ± 0.088
PRPF31 (UniProt Q8WWY3),1.05 ± 0.037,1.11 ± 0.049
UniProt Q8WWW0-2,0.972 ± 0.016,0.952 ± 0.056
UniProt Q92878 and related entries,1.058 ± 0.01,1.11 ± 0.056
UniProt Q8WVM7 and related entries,1.05 ± 0.014,0.992 ± 0.054
GLMN (UniProt Q92990),1.08 ± 0.083,1.01 ± 0.072
MAML1 (UniProt Q92585),0.961 ± 0.11,0.904 ± 0.088
GPT2 (UniProt Q8TD30),0.925 ± 0.062,1 ± 0.11
RNF166 (UniProt Q96A37),0.9 ± 0.09,0.97 ± 0.082
UniProt Q8TDH9,1 ± 0.11,0.842 ± 0.18
CCDC102A (UniProt Q96A19),0.987 ± 0.16,0.949 ± 0.086
UniProt Q92674,0.915 ± 0.17,1.02 ± 0.17
UniProt Q8TCE6 and related entries,1.03 ± 0.091,1 ± 0.059
UniProt Q92796-2|Q92796-3,0.991 ± 0.025,1.03 ± 0.064
NOC3L (UniProt Q8WTT2),1.02 ± 0.056,1.07 ± 0.073

# Look-ups from the entries so far:
# Value for UniProt Q92878 and related entries under NP40-soluble protein abundance (concentration: 0.5mM): 1.11 ± 0.056
# Value for UniProt Q92600 and related entries under NP40-soluble protein abundance (concentration: 0.1mM): 0.831 ± 0.16
# Value for UniProt Q92796-2|Q92796-3 under NP40-soluble protein abundance (concentration: 0.1mM): 0.991 ± 0.025
# Value for GPT2 (UniProt Q8TD30) under NP40-soluble protein abundance (concentration: 0.1mM): 0.925 ± 0.062
# Value for NOC3L (UniProt Q8WTT2) under NP40-soluble protein abundance (concentration: 0.1mM): 1.02 ± 0.056
